Substitutions are numbered along the chain they refer to. Numbers in names are those of the source. Results are given in words; binding and its absence hold for the method and conditions named. For some assays here: In cells and extracts the contact can be indirect. Some entries that bind do so weakly or less than the wild type.

For assay [1], the target named is T1, yeast 2C smc3AAA (Smc3E570C S1043C R665A K668A R669A) (S. cerevisiae) (UniProt P47037).
T1 sequence: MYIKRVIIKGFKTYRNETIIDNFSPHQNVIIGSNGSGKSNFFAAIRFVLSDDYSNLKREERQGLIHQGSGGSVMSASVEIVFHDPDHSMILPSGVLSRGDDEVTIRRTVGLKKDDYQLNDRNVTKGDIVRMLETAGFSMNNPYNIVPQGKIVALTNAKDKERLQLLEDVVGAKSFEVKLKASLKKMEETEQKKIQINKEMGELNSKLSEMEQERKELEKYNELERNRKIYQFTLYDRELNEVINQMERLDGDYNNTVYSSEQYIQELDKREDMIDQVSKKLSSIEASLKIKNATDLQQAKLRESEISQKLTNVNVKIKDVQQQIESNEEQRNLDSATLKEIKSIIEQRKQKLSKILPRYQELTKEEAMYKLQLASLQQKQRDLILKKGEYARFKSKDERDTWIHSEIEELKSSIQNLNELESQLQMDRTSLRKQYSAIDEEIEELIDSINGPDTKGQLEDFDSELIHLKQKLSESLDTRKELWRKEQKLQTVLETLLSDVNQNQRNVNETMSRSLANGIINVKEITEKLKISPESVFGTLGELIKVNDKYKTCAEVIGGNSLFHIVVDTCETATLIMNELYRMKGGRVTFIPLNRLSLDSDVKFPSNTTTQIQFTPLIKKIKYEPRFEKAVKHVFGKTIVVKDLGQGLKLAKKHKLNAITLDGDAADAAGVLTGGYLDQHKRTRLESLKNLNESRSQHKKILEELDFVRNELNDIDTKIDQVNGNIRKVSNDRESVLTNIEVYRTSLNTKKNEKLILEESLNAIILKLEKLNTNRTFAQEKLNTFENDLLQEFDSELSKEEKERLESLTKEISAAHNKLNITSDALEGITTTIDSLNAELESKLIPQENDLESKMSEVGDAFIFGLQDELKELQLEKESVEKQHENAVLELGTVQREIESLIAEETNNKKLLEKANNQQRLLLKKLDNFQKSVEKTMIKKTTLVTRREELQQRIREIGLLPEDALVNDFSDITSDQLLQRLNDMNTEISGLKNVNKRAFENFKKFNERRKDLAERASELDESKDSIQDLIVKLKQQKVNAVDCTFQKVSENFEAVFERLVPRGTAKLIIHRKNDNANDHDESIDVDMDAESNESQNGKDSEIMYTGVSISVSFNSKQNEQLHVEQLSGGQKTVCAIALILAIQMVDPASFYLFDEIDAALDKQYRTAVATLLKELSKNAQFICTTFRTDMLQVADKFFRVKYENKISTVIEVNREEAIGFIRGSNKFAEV
The experiment in a line: cross-linking.

For assay [2], the target named is T2, yeast Smc3 (subunit of the purified tetramers) (S. cerevisiae) (UniProt P47037).
T2 sequence: T1 sequence with C570E, A665R, A668K, A669R, C1043S
The experiment in a line: co-purification.

Assay [3] has as its target T3, yeast 2C Smc3 (Smc3E570C S1043C) (S. cerevisiae) (UniProt P47037).
T3 sequence: T1 sequence with A665R, A668K, A669R
Description: cross-linking.

B1: yeast 2C smc1DD (Smc1G22C K639C K554D K661D) (protein, UniProt P32908 1-1225)
chain: MGRLVGLELSNFKSYRGVTKVCFGESNFTSIIGPNGSGKSNMMDAISFVLGVRSNHLRSNILKDLIYRGVLNDENSDDYDNEGAASSNPQSAYVKAFYQKGNKLVELMRIISRNGDTSYKIDGKTVSYKDYSIFLENENILIKAKNFLVFQGDVEQIAAQSPVELSRMFEEVSGSIQYKKEYEELKEKIEKLSKSATESIKNRRRIHGELKTYKEGINKNEEYRKQLDKKNELQKFQALWQLYHLEQQKEELTDKLSALNSEISSLKGKINNEMKSLQRSKSSFVKESAVISKQKSKLDYIFKDKEKLVSDLRLIKVPQQAAGKRISHIEKRIESLQKDLQRQKTYVERFETQLKVVTRSKEAFEEEIKQSARNYDKFKLNENDLKTYNCLHEKYLTEGGSILEEKIAVLNNDKREIQEELERFNKRADISKRRITEELSITGEKLDTQLNDLRVSLNEKNALHTERLHELKKLQSDIESANNQEYDLNFKLRETLVKIDDLSANQRETMKERKLRENIAMLKRFFPGVKGLVHDLCHPKKEKYGLAVSTILGDNFDSVIVENLTVAQECIAFLKKQRAGTASFIPLDTIETELPTLSLPDSQDYILSINAIDYEPEYEKAMQYVCGDSIICNTLNIACDLKWKKGIRGKLVTIEGALIHDAGLMTGGISGDANNRWDKEEYQSLMSLKDKLLIQIDELSNGQRSNSIRAREVENSVSLLNSDIANLRTQVTQQKRSLDENRLEIKYHNDLIEKEIQPKITELKKKLDDLENTKDNLVKEKEALQNNIFKEFTSKIGFTIKEYENHSGELMRQQSKELQQLQKQILTVENKLQFETDRLSTTQRRYEKAQKDLENAQVEMKSLEEQEYAIEMKIGSIESKLEEHKNHLDELQKKFVTKQSELNSSEDILEDMNSNLQVLKRERDGIKEDIEKFDLERVTALKNCKISNINIPISSETTIDDLPISSTDNEAITISNSIDINYKGLPKKYKENNTDSARKELEQKIHEVEEILNELQPNARALERYDEAEGRFEVINNETEQLKAEEKKILNQFLKIKKKRKELFEKTFDYVSDHLDAIYRELTKNPNSNVELAGGNASLTIEDEDEPFNAGIKYHATPPLKRFKDMEYLSGGEKTVAALALLFAINSYQPSPFFVLDEVDAALDITNVQRIAAYIRRHRNPDLQFIVISLKNTMFEKSDALVGVYRQQQENSSKIITLDLSNYAE
On to B1, for which the binding result in assay [1] is given as “binds”.

B2: yeast Smc1 (subunit of the purified wild type tetramer) (protein, UniProt P32908 1-1225)
chain: B1 chain with C22G, D554K, C639K, D661K
With B2, in assay [2], the binding entry is listed as “binds”.

B3: yeast smc1DDD (Smc1 K554D K650D K661D, subunit of the purified DDD mutant tetramer) (protein, UniProt P32908 1-1225)
chain: B1 chain with C22G, C639K, K650D
B3: the binding result in assay [2] was “binds”.

B4: yeast 2C Smc1DDD (Smc1G22C K639C K554D K650D K661D) (protein, UniProt P32908 1-1225)
chain: B1 chain with K650D
Take B4: the binding result in assay [3] is on record as “binds”.

B5: yeast 2C Smc1 (Smc1G22C K639C) (protein, UniProt P32908 1-1225)
chain: B1 chain with D554K, D661K
As for B5, the binding entry in assay [3] is “binds”.

Values taken from publication doi:10.1101/197848.
